Here are results for 2 molecules from article PMC7698808.

For test [1], the target named is human metallocarboxypeptidase Z without the N-terminal Fz domain, recombinant form CPZΔFz (residues 186-623) (human) (UniProt Q66K79). Kind of test: SEC; last purification step; HiLoad Superdex 75 26/60 column, 50 mM Tris-HCl, pH 7.5, 150 mM NaCl; both purified.
Test [2] deals with human metallocarboxypeptidase Z, recombinant form CPZ (residues 19-623) (human) (UniProt Q66K79). The test is described as above.

These are yes or no findings as the source states them, for the method shown.

B1: human metallocarboxypeptidase Z without the N-terminal Fz domain, recombinant form CPZΔFz (residues 186-623) (domain or fragment, UniProt Q66K79 186-623)
chain: SHHSYAQMVRVLRRTASRCAHVARTYSIGRSFDGRELLVIEFSSRPGQHELMEPEVKLIGNIHGNEVAGREMLIYLAQYLCSEYLLGNPRIQRLLNTTRIHLLPSMNPDGYEVAAAEGAGYNGWTSGRQNAQNLDLNRNFPDLTSEYYRLAETRGARSDHIPIPQHYWWGKVAPETKAIMKWMQTIPFVLSASLHGGDLVVSYPFDFSKHPQEEKMFSPTPDEKMFKLLSRAYADVHPMMMDRSENRCGGNFLKRGSIINGADWYSFTGGMSDFNYLHTNCFEITVELGCVKFPPEEALYILWQHNKESLLNFVETVHRGIKGVVTDKFGKPVKNARISVKGIRHDITTAPDGDYWRLLPPGIHIVIAQAPGYAKVIKKVIIPARMKRAGRVDFILQPLGMGPKNFIHGLRRTGPHDPLGGASSLGEATEPDPLRARR
B1: in test [1], the binding entry is “no binding”.

B2: human metallocarboxypeptidase Z, recombinant form CPZ (residues 19-623) (enzyme, UniProt Q66K79 19-623)
chain: RPGCEFERNPAGECHRPPAADSATCVDLQLRTCSDAAYNHTTFPNLLQHRSWEVVEASSEYILLSVLHQLLEGQCNPDLRLLGCAVLAPRCEGGWVRRPCRHICEGLREVCQPAFDAIDMAWPYFLDCHRYFTREDEGCYDPLEKLRGGLEADEALPSGLPPTFIRFSHHSYAQMVRVLRRTASRCAHVARTYSIGRSFDGRELLVIEFSSRPGQHELMEPEVKLIGNIHGNEVAGREMLIYLAQYLCSEYLLGNPRIQRLLNTTRIHLLPSMNPDGYEVAAAEGAGYNGWTSGRQNAQNLDLNRNFPDLTSEYYRLAETRGARSDHIPIPQHYWWGKVAPETKAIMKWMQTIPFVLSASLHGGDLVVSYPFDFSKHPQEEKMFSPTPDEKMFKLLSRAYADVHPMMMDRSENRCGGNFLKRGSIINGADWYSFTGGMSDFNYLHTNCFEITVELGCVKFPPEEALYILWQHNKESLLNFVETVHRGIKGVVTDKFGKPVKNARISVKGIRHDITTAPDGDYWRLLPPGIHIVIAQAPGYAKVIKKVIIPARMKRAGRVDFILQPLGMGPKNFIHGLRRTGPHDPLGGASSLGEATEPDPLRARR
Take B2: the binding entry in test [2] was “no binding”.
